Experimental data reported in publication PMC8143632.
No constants are given. Whether binding was seen depends on the method and setting. Binding seen in cells or lysates may run through a third protein. Here binding means that the protein was enriched with, or labelled near, the bait; the list need not be complete. For some of these results: Tags and fused reporters may be left off the sequences shown.

Amino acid sequences for entries named in this document (tags omitted).
UniProt Q92769: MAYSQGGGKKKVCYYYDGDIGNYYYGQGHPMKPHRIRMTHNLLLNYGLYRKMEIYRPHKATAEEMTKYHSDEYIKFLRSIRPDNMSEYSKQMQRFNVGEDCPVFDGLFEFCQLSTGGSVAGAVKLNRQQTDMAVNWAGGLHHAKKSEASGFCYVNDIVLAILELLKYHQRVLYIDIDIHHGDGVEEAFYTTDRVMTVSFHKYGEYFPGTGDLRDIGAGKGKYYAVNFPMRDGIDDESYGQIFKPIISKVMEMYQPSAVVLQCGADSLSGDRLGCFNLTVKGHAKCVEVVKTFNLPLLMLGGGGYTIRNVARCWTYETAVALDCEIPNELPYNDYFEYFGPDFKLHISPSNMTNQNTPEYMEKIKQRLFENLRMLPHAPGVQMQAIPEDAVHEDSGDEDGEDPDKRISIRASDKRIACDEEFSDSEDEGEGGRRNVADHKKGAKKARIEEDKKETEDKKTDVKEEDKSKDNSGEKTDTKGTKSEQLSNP
UniProt Q9UBU8: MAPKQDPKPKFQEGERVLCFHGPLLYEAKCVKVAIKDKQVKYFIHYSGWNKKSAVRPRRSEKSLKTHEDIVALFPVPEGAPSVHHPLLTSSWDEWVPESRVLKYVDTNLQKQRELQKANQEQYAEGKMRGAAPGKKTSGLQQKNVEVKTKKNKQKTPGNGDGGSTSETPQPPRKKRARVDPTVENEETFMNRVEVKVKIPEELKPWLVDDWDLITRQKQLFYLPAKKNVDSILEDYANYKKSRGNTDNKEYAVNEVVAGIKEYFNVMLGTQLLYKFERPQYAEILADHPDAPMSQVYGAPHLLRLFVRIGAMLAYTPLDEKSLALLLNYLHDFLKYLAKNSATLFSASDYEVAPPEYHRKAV
UniProt Q96QT6: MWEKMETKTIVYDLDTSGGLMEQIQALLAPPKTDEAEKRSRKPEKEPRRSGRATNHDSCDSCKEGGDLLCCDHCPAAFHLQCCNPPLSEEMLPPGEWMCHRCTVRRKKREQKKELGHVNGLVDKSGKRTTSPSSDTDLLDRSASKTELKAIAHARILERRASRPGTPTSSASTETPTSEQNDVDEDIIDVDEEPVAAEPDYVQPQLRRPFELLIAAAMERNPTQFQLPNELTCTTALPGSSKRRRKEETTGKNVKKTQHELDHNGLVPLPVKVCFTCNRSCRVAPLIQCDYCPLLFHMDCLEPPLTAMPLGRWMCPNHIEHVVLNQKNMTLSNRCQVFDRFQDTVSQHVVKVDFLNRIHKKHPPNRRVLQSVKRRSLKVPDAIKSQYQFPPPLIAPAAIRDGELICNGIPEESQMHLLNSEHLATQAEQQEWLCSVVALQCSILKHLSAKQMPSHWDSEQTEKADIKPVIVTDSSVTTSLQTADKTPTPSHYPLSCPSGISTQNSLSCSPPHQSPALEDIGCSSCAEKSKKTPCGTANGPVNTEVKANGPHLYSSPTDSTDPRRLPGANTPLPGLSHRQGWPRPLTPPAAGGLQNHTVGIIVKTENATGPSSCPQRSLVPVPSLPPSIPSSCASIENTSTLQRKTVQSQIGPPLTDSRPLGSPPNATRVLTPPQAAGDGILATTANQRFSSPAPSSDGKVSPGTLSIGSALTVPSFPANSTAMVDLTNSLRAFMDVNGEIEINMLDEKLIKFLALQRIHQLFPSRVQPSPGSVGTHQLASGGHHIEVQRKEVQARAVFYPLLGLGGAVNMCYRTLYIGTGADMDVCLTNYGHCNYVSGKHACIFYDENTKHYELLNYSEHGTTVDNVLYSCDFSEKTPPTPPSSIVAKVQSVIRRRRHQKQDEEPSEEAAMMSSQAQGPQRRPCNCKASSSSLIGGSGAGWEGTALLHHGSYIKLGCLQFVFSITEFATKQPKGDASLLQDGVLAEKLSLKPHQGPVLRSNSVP
UniProt Q13547: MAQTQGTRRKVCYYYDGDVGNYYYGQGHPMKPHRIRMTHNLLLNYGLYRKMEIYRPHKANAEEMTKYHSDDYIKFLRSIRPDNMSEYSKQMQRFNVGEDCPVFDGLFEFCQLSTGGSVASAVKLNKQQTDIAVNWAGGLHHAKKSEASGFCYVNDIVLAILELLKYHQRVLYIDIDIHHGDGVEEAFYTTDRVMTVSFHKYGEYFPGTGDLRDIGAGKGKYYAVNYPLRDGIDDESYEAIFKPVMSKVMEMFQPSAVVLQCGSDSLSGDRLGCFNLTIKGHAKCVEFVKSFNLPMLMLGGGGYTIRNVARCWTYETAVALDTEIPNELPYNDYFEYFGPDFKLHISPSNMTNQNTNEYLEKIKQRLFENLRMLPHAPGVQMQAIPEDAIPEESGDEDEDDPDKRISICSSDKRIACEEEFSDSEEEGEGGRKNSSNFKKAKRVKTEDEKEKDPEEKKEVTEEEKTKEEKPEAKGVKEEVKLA

Legend:
Experiment in all cases: affinity purification with mass spectrometry; Halo-tagged bait stably expressed in Flp-In-293 cells; lysate with HL-SAN nuclease 2 U/ml for 2 h at 4 °C; bait captured on Magne HaloTag Beads, eluted with AcTEV Protease; MudPIT; enrichment over cells without transgene by QSPEC (Z-statistic >= 3 and log2 fold change >= 2)
[1] = molecular target: Halo-tagged HDAC2 (human) (UniProt Q92769)
[2] = molecular target: Halo-tagged MORF4L1 (human) (UniProt Q9UBU8)
[3] = molecular target: Halo-tagged PHF12 (human) (UniProt Q96QT6)
[4] = molecular target: T1, HaloTag-SUDS3 (human) (UniProt Q9H7L9)
T1 sequence: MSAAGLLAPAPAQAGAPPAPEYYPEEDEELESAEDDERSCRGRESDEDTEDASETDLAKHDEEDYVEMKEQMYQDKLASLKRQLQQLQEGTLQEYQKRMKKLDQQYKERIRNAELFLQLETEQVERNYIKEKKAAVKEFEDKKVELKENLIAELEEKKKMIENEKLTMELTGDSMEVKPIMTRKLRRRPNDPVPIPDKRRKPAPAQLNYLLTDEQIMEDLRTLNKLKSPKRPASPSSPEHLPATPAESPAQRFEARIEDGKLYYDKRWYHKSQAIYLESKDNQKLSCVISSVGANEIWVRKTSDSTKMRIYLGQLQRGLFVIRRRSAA

[5] = molecular target: T2, Halo-tagged BRMS1 (human) (UniProt Q9HCU9)
T2 sequence: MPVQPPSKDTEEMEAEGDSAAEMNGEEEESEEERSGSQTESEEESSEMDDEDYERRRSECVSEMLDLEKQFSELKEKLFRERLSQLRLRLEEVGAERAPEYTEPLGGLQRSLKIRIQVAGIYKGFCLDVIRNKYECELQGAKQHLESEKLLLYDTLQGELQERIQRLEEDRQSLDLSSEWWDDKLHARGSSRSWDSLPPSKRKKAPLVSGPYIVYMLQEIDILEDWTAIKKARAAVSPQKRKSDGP

[6] = molecular target: T3, Halo-tagged BRMS1L (human) (UniProt Q5PSV4)
T3 sequence: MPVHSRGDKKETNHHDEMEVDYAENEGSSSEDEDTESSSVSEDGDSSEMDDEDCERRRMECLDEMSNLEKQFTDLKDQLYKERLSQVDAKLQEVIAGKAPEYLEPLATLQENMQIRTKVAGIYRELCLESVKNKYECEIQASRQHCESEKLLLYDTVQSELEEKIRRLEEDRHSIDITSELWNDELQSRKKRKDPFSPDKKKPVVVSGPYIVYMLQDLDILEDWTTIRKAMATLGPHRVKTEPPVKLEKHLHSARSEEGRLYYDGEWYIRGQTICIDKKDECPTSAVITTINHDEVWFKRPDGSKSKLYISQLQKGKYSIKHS

[7] = molecular target: Halo-tagged HDAC1 (human) (UniProt Q13547)

Measured: binding

SIN3B (native) (from UniProt O75182-2)
binds: [1] | [2] | [3] | [4] | [5] | [6] | [7]
